Data: PMC10093452
Results are given in words; binding and its absence hold for the method and conditions named. Binding seen in cells or lysates may run through a third protein. Some entries that bind do so weakly or less than the wild type.

Chains of the proteins cited; added tags and fusions are not shown.
UniProt Q08024: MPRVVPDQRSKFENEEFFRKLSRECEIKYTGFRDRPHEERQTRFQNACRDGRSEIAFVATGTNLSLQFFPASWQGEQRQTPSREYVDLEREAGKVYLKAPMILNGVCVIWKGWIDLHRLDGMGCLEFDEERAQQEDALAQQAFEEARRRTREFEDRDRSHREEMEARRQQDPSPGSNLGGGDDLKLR
UniProt Q03347: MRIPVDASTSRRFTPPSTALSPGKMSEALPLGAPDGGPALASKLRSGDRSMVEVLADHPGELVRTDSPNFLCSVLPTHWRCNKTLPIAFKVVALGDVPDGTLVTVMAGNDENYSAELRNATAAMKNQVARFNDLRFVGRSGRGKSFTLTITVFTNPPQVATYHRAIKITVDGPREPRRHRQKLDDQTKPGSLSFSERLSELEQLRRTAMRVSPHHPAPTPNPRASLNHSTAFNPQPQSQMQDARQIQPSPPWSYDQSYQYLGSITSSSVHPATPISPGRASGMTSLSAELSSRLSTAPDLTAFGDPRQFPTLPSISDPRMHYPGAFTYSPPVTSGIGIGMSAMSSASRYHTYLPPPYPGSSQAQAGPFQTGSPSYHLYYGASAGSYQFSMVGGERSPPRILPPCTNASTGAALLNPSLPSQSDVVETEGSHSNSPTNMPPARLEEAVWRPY

Biological target: Myc-Cbfβ (core binding factor β) (UniProt Q08024)
Assay: co-IP; primary articular chondrocytes co-transfected with Myc-Cbfβ and Flag-Runx1 for 24 h; cell lysates (400 μg) bound with anti-Myc at 4 °C overnight, Sepharose A beads 2 h at 4 °C, five washes with lysis buffer; Western blot with anti-Flag or anti-Myc

binding: binds
Substance: Flag-Runx1 (runt-related transcription factor 1) (from UniProt Q03347 1-451)
